According to patent US9011862B2, “Inhibitors of the nitration of amyloid β peptides and their uses in the diagnosis and treatment of Alzheimer's disease” (Rheinische Friedrich-Wilhelms-Universität Bonn, priority 2009, dated 2015):

Tested on: APP/PS1 mice
Assay: Intracerebral injection, induction of β-amyloidosis
Type: in vivo, mouse
Details: 2.5 μl intracerebral in 2.5 month old APP/PS1 mice, analysis after 8 weeks

Substance: nitrated Aβ1-42: synthetic Aβ1-42 nitrated at tyrosine 10 by peroxynitrite treatment
- amyloid seeds localized distant from the injection side: able to induce amyloid seeds
